We go through one compound from patent US12133855B2, “Lipid-like nanocomplexes and uses thereof” (Trustees of Tufts College, priority 2018, dated 2024).

One may read the MIC as the lowest concentration that inhibits growth of the organism. Read a low MIC as inhibition by little substance.

Each structure is given as a SMILES string. Values after ≈ are worked out from the molar mass of the structure shown.

One data set relates to C. albicans (SC5314). Put plainly: In vitro antifungal activity (MIC, broth dilution). The format is cell-based. The note with it: 24 and 48 h incubation (48 h stated for Fungizone and free AmB).
The conditions of data set [1]: physiological pH; cited from earlier work.

Take `C[C@@H]1[C@H](O)[C@@H](C)/C=C/C=C/C=C/C=C/C=C/C=C/C=C/[C@H](O[C@@H]2O[C@H](C)[C@@H](O)[C@H](N)[C@@H]2O)C[C@@H]2O[C@](O)(C[C@@H](O)C[C@@H](O)[C@H](O)CC[C@@H](O)C[C@@H](O)CC(=O)O[C@H]1C)C[C@H](O)[C@H]2C(=O)O` [free AmB, amphotericin B]: the minimal inhibitory concentration (MIC) in the data set with C. albicans (SC5314) is 1.75 mg/L (≈ 1.89 µM). For the same compound, the water solubility result in data set [1] is “less than 1 mg/L”.
